Laboratory results: PubChem BioAssay AID1224830 (NIAID, 2016)

- Aim: 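Host factors that control LPS-induced TNF expression in human macrophages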 (primary screen)
- Cell system: human THP-1 monocytic leukaemia cells, TNF dual-luciferase reporter clone, PMA-differentiated to macrophage-like cells
- Reagent: siRNA pool against human genes, 50 nM
- Timing: LPS for 4 h, given about 3 days after siRNA transfection
- Conditions: bacterial LPS (TLR4 ligand), 10 ng/ml
- Measured: 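TNF firefly reporter luminescence divided by renilla, normalised to the plate median, then turned into a robust z-score for each replicate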
- Reading the numbers: TNF reporter robust z-score: higher = stronger TNF reporter response to LPS
- Hit rule: 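a well is active when its z-score exceeds 2.8 or falls below -1.5; control wells carry no call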
The deposit covers about 18,000 reagents; below is a part drawn at random. About 2,900 of all reagents (16%) count as active. 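Calls are made per well; low scores hint the gene aids the LPS response, high scores that it dampens it.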 Repeated entries: four replicate wells of each siRNA pool. Reagent sequences are not shown.

After knock-down of TAGLN3 (GeneID 29114), the record shows TNF reporter robust z-score 1.72; inactive. For TAGLN3 (GeneID 29114), the values are TNF reporter robust z-score 1.64; inactive. TAGLN3 (GeneID 29114) showed TNF reporter robust z-score 1.71; inactive. Silencing of TAGLN3 (GeneID 29114) came out at: TNF reporter robust z-score 0.07; inactive. Silencing of ZBED8 (GeneID 63920) gave: TNF reporter robust z-score -0.45; inactive. ZBED8 (GeneID 63920) scored TNF reporter robust z-score 0.13; inactive.

ZBED8 (GeneID 63920) scored TNF reporter robust z-score 0; inactive. Against ZBED8 (GeneID 63920), the entry reads TNF reporter robust z-score 0.4; inactive.

3 entries from above, arranged by “TNF reporter robust z-score”, high to low:
TAGLN3 (GeneID 29114) | TNF reporter robust z-score = 1.71; activity call = inactive
TAGLN3 (GeneID 29114) | TNF reporter robust z-score = 1.64; activity call = inactive
TAGLN3 (GeneID 29114) | TNF reporter robust z-score = 0.07; activity call = inactive

Continued.
Silencing of TNFSF12-TNFSF13 (GeneID 407977) gave: TNF reporter robust z-score 0.14; inactive. Against TNFSF12-TNFSF13 (GeneID 407977), the values are TNF reporter robust z-score 0.07; inactive. With knock-down of TNFSF12-TNFSF13 (GeneID 407977), the record shows TNF reporter robust z-score -0.64; inactive. After knock-down of TNFSF12-TNFSF13 (GeneID 407977) the results were TNF reporter robust z-score -0.15; inactive. LRRC31 (GeneID 79782) showed TNF reporter robust z-score 1.26; inactive. With knock-down of LRRC31 (GeneID 79782) the results were TNF reporter robust z-score 1.35; inactive.

With knock-down of LRRC31 (GeneID 79782), the screen gave TNF reporter robust z-score 1.15; inactive. Knock-down of LRRC31 (GeneID 79782) resulted in: TNF reporter robust z-score 1.63; inactive. With knock-down of SCRT2 (GeneID 85508) the results were TNF reporter robust z-score -0.52; inactive. Silencing of SCRT2 (GeneID 85508) resulted in: TNF reporter robust z-score -0.53; inactive. With knock-down of SCRT2 (GeneID 85508), the record shows TNF reporter robust z-score -1.09; inactive.
